These are yes or no findings as the source states them, for the method shown. Some binding calls cover weakened binding; strength is not graded here.
B1: TrkB-agoAb303 (antibody, V domains shown)
VH: DVKLVESGGGLVKPGGSLKLSCAASGFTFSSYTMSWVRQTPEKRLEWVATISSGGDYTYFPDSVKGRFTMSRDNAKNALYLQMSSLKSEDTAMYYCTRESGRGDFDYWGQGTTLTVSS
VL: DVLMTQTPLSLPVSLGDQASISCRSSQNIVHSNGNTYLEWYLQKPGQSPNLLIYNVSNRFSGVPDRFSGSGSGTDFTLKISRVEAEDLGVYYCFQGSHFPWTFGGGTKLEIT
notes: Mouse monoclonal antibody
B2: TrkB-agoAb1104 (antibody, IgG1, V domains shown)
VH: QVQLQQSGAELARPGASVKLSCKASGYTFTRYWMQWVKQRPGQGLEWIGAIYPGDGDTRYTQKFKGKATLTADKSSSTAYMQLSSLASEDSAVYYCAGSGLGRAWFTYWGQGTLVTVSA
VL: DIQMTQSPASLSASVGETVTITCRSSENIYSYLAWYQQKQGKSPQLLVYNAKTLAEGVPSRFSGSGSGTQFSLKINSLQPEDFGSYYCQHHYGPPYTFGGGTKLEIK
B3: TrkB-agoAb2908 (antibody, IgG1, V domains shown)
VH: QVQLQQSGPELVKPGASVKISCKASGYTFSSSWMNWVKQRPGQGLEWIGRIYPGDGHTNYNGKFKGKATLTADKSSSTAYMQLTSLTSVDSGVYFCARSGYGYGFDCWGQGTTLTVSS
VL: NIVLTQSPASLAVSLGQRATISCRASESVDNYGNSLMHWYQQKPGQPPKLLIYLASNLESGVPARFSGSGSRTDFTLTIDPVEADDAATYYCQQNNEDPPWTFGGGTKLEIKR

Amino acid sequences for entries named in this document (tags omitted). A change or cut given only in a name is not applied to a line headed by its entry. Residues count along the entry.
UniProt Q16620: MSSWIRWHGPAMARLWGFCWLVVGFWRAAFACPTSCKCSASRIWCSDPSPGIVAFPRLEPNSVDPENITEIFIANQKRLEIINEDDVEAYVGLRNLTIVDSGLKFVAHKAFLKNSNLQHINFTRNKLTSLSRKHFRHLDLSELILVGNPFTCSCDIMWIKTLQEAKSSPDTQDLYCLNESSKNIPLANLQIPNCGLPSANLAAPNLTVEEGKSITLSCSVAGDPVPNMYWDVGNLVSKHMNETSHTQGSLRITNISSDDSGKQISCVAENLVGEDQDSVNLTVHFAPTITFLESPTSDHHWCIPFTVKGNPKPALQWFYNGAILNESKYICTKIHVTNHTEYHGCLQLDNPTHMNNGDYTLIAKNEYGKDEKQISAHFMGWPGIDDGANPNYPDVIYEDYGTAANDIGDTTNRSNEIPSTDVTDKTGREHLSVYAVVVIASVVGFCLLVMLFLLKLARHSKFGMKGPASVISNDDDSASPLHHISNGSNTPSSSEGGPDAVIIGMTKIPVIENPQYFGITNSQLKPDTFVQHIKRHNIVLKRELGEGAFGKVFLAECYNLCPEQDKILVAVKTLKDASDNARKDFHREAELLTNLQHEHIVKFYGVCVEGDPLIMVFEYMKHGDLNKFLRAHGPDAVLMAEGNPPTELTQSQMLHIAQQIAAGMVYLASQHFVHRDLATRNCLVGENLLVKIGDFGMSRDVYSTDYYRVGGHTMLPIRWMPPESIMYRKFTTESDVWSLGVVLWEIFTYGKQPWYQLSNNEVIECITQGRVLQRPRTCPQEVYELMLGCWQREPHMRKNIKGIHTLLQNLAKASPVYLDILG
human TrkB (recombinant protein coated in ELISA / immobilised in Biacore): residues 30-430 of Q16620
TrkB full length (FL, WT) conjugated with GFP, expressed in 293T cells: residues 32-822 of Q16620

Key:
[1] = target: human TrkB (recombinant protein coated in ELISA / immobilised in Biacore) (human) (UniProt Q16620); assay: ELISA on coated TrkB, antibody at 10 nM, 1 nM and 0.1 nM
[2] = target: human TrkB (recombinant protein coated in ELISA / immobilised in Biacore) (human) (UniProt Q16620); assay: ELISA, protein coated on plate, antibody at 10 nM, 1 nM or 0.1 nM
[3] = target: TrkB full length (FL, WT) conjugated with GFP, expressed in 293T cells (UniProt Q16620); assay: immunoprecipitation of GFP-tagged full-length and truncated TrkB from 293T lysates; binding domain

Binder	binding [1]	binding [2]	binding [3]
B1	binds	binds	–
B2	binds	binds	–
B3	binds	binds	binds

From US20210269531A1 (TSINGHUA UNIVERSITY, published 2021)
